No constants are given. Whether binding was seen depends on the method and setting. Binding seen in cells or lysates may run through a third protein. Some entries that bind do so weakly or less than the wild type.
Biological target: Transforming growth factor-β1 (rat (endogenous in myocardial tissue)) (UniProt P17246)
Experiment: co-IP; myocardial tissue homogenate of rats (Sham and MI groups) in lysis buffer (50 mM Tris-HCl, 5 mM EDTA, 150 mM NaCl, 0.5% Nonidet-P40, 10% glycerol, pH 7.4); precipitated with TGF-β1 antibody or IgG control overnight at 4 °C, Protein G magnetic beads, 5 washes in TBST, Western blot

Protein sequences, listed by entry. Tags and fused reporters are not part of them. Residues count along the entry.
UniProt P17246, residues 279-390: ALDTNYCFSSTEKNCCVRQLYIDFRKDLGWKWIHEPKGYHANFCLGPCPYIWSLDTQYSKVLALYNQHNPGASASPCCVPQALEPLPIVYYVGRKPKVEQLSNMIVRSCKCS

- binding: binds
B1: TGF-β receptor II (receptor, UniProt P38438 24-567)
chain: IPPHVPKSVNSDLMAGDNSGAVKLPQLCKFCDVTLSTCDNQKSCMSNCSVTSICEKPQEVCVAVWRKNDKNITLETVCHDPKFTYHGFTLEDATSPTCVMKEKKRAGETFFMCSCNTEECNDYIIFNEEYTTSSPDLLLVIIQVTGVSLLPPLGIAIAVIAIFYCYRVHRQQKLSPSWESSKPRKLMDFSDNCAIILEDDRSDISSTCANNINHNTELLPIELDTLVGKGRFAEVYKAKLKQNTSEQFETVAVKIFPYEEYSSWKTEKDIFSDINLKHENILQFLTAEERKTEMGKQYWLITAFHAKGNLQEYLTRHVISWEDLRKLGSSLARGIAHLHSDHTPCGRPKMPIVHRDLKSSNILVKNDLTCCLCDFGLSLRLDPTLSVDDLANSGQVGTARYMAPEVLESRMNLENMESFKQTDVYSMALVLWEMTSRCNAVGEVKDYEPPFGSKVREHPCVESMKDNVLRDRGRPEIPSFWLNHQGIQIVCETLTECWDHDPEARLTAQCVAERFSELEHPDRLSGRSCSQEKIPEDGSLNTTK

From paper PMC11088074
